These results are taken from publication PMC10113190.

By UniProt entry, the sequences of proteins in these tests, tags left out. Residues count along the entry.
UniProt Q8IFM5, residues 25-526: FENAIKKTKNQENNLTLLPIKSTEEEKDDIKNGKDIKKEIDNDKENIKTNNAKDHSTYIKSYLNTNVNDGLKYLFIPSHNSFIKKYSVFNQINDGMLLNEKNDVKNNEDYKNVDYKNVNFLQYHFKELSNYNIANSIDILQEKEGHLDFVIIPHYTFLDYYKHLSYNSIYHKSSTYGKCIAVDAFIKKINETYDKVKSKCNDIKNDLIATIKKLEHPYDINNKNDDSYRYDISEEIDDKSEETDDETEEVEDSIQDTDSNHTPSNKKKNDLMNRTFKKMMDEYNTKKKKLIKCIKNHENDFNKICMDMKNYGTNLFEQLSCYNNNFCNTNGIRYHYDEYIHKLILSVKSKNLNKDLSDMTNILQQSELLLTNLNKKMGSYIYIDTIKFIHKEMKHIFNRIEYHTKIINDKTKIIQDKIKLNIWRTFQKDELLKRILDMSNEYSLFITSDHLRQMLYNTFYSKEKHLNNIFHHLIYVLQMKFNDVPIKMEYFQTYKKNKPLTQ
UniProt Q8ILP3, residues 23-945: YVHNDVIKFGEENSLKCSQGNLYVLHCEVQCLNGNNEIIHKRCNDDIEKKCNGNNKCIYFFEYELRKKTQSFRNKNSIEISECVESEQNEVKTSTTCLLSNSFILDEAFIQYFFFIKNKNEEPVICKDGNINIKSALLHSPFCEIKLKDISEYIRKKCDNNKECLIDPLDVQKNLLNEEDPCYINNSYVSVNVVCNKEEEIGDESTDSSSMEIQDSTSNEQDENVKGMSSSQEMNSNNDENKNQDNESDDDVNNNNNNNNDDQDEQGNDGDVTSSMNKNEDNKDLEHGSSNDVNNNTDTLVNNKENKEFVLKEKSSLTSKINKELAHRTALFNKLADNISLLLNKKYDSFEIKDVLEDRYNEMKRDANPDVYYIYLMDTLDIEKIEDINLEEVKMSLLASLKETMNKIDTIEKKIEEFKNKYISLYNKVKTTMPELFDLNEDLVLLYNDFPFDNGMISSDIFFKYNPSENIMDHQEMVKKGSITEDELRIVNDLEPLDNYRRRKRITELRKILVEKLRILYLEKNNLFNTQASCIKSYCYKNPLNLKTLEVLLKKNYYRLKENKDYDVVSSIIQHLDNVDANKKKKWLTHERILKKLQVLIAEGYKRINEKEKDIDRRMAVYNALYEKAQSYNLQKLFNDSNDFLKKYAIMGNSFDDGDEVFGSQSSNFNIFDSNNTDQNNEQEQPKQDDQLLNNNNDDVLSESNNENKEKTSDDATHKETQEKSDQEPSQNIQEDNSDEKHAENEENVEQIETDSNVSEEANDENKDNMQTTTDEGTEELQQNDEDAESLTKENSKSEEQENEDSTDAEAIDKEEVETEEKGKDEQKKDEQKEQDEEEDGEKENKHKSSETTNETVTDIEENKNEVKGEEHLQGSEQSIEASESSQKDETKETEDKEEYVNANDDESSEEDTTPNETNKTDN
UniProt O97302, residues 20-1086: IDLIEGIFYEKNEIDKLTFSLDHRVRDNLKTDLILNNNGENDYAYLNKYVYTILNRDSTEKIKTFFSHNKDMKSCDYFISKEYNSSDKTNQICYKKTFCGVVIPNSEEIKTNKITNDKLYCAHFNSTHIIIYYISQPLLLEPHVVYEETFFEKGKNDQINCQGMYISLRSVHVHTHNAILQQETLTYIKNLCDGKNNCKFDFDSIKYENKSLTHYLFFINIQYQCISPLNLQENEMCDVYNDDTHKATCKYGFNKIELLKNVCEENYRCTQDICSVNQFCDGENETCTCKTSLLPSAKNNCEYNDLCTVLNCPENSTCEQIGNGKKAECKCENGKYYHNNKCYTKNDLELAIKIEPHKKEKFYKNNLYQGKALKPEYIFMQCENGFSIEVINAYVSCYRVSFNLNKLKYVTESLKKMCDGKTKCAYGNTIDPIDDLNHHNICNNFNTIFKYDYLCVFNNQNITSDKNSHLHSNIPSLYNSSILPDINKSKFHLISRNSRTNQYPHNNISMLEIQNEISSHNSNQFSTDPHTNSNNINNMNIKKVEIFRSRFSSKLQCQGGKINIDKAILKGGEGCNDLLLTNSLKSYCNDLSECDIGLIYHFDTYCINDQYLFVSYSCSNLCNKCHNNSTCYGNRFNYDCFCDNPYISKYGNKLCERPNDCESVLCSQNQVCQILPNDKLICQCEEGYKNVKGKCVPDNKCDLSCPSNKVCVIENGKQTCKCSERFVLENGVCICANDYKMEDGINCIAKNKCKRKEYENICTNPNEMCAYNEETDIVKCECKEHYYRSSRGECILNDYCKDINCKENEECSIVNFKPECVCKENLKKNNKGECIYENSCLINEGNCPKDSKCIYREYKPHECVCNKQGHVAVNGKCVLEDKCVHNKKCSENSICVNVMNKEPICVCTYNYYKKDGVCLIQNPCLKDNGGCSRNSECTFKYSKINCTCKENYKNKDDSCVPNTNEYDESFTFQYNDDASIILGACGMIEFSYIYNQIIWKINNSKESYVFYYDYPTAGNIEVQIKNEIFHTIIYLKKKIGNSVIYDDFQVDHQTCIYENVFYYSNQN

Results are given in words; binding and its absence hold for the method and conditions named. Binding seen in cells or lysates may run through a third protein. Here binding means that the protein was enriched with, or labelled near, the bait; the list need not be complete.

The experiment concerns the target PfRh5 with an N-terminally HA-tagged prodomain (Rh5PD-NHA), kept unprocessed with WM382 (P. falciparum) (UniProt Q8IFM5). Put plainly: affinity purification with mass spectrometry.

On to “P113 (PF3D7_1420700), endogenous (from UniProt Q8ILP3 23-945)”, for which the binding result is reported as “binds”.
Regarding “PfRipr (PF3D7_0323400), endogenous (from UniProt O97302 20-1086)”, the binding result is “binds”.
